## Cleaved PARP in drug-treated melanoma cells

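Human melanoma cell lines in 1,536-well plates were treated with a pair of drugs for 72 h, then fixed, stained and imaged. The read-out is the fraction of cleaved-PARP-positive nuclei, in % of that fraction in the DMSO control; 200 means twice the control level of this apoptosis marker. Concentrations were fixed for each drug; these are the higher of two levels. These are primary screening values without error estimates. The marker varies much from line to line, for technical or biological reasons.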
This is part of the screen, not chosen by result.
A dash means that no value is listed here.

All values are for the listed drug together with IMD-0354 (0.08 µM): O=C(Nc1cc(C(F)(F)F)cc(C(F)(F)F)c1)c1cc(Cl)ccc1O

| # | Partner | MeWo | COLO 800 | A2058 | SK-MEL-5 | COLO 829 | IST-MEL1 | WM451Lu | SK-MEL-28 | 501mel | WM3526 | MEL-HO | WM115 |
|---|---|---|---|---|---|---|---|---|---|---|---|---|---|
| 1 | O=C(O)C(=O)Nc1sc2c(c1C(=O)O)CCNC2 at 8.33 µM | 161 | 78.5 | 87.6 | 112 | 122 | 73.0 | 76.2 | 28.1 | 99.8 | 117 | 206 | 116 |
| 2 | C[As](C)SC[C@H](NC(=O)CC[C@H](N)C(=O)O)C(=O)NCC(=O)O at 2 µM | 109 | 109 | 69.5 | 264 | 59.4 | 120 | 176 | 76.9 | - | 231 | 83.9 | 136 |
| 3 | NC(=O)c1ccc(N(C(N)=O)c2c(F)cccc2F)nc1-c1ccc(F)cc1F at 2 µM | 69.8 | 416 | 110 | 16.9 | 150 | 244 | 29.1 | 46.6 | - | 48.4 | 280 | 40.9 |
| 4 | CN(c1ncccc1CNc1nc(Nc2ccc3c(c2)CC(=O)N3)ncc1C(F)(F)F)S(C)(=O)=O at 0.4 µM | 62.2 | 149 | 153 | 144 | 242 | 118 | 234 | 99.6 | - | 152 | 144 | 107 |
| 5 | Cc1ccc(Nc2nccc(N(C)c3ccc4c(C)n(C)nc4c3)n2)cc1S(N)(=O)=O at 2 µM | 69.3 | 144 | 60.5 | 62.3 | 45.4 | 41.8 | 157 | 30.8 | - | 203 | 88.1 | 145 |
| 6 | CCN(CC)CCNC(=O)c1c(C)[nH]c(/C=C2\C(=O)Nc3ccc(F)cc32)c1C at 2 µM | 152 | 158 | 159 | 142 | 89.8 | 114 | 117 | 98.7 | - | 184 | 281 | 346 |
| 7 | O=c1[nH]nc(Sc2ncc([N+](=O)[O-])s2)n1-c1ccc2c(c1)OCCO2 at 1 µM | 116 | 52.7 | 86.5 | 119 | 127 | 336 | 86.0 | 24.4 | - | 90.5 | 64.0 | 149 |
| 8 | Cc1ccc(NC(=O)c2cccc(N(C)C)c2)cc1NC(=O)c1ccc(O)cc1 at 10 µM | 119 | 85.2 | 127 | 181 | 73.1 | 107 | 59.0 | 26.5 | - | 135 | 85.4 | 63.8 |
| 9 | NCC(=O)Nc1ccc(-n2nc(C(F)(F)F)cc2-c2ccc3c(ccc4ccccc43)c2)cc1 at 5 µM | 43.0 | 197 | 39.9 | 329 | 195 | 60.0 | 71.1 | 446 | - | 371 | 176 | 101 |
| 10 | CCN(CC)CCCCNc1ncc2cc(-c3cc(OC)cc(OC)c3)c(NC(=O)NC(C)(C)C)nc2n1 at 0.5 µM | 97.2 | 78.9 | 95.1 | 84.2 | 25.6 | 99.1 | 36.9 | 32.1 | 43.5 | 69.7 | 120 | 21.1 |
| 11 | CC(C)C[C@H](NC(=O)[C@H](Cc1ccccc1)NC(=O)c1cnccn1)B(O)O at 0.005 µM | 1660 | 46.7 | 2200 | 2500 | 4260 | 635 | 611 | 221 | - | 2820 | 134 | 4960 |
| 12 | O=C(O)c1ccc2c(c1)nc(Nc1cccc(Cl)c1)c1ccncc12 at 2 µM | 77.2 | 82.3 | 137 | 56.1 | 134 | 99.3 | 62.6 | 49.1 | - | 109 | 67.1 | 63.6 |
| 13 | CN1CCN(c2ccc3nc(-c4c(N)c5c(F)cccc5[nH]c4=O)[nH]c3c2)CC1 at 0.5 µM | 428 | 194 | 699 | 270 | 153 | 56.7 | 88.2 | 153 | - | 173 | 107 | 536 |
| 14 | CC(=O)O[C@@]12CO[C@@H]1C[C@H](O)[C@@]1(C)C(=O)[C@H](O)C3=C(C)[C@@H](OC(=O)[C@H](O)[C@@H](NC(=O)OC(C)(C)C)c4ccccc4)C[C@@](O)([C@@H](OC(=O)c4ccccc4)[C@H]21)C3(C)C at 0.0005 µM | 1130 | 320 | 1590 | 566 | 348 | 272 | 79.0 | 243 | - | 870 | 233 | 1040 |
| 15 | COc1cc(Nc2ncc(F)c(Nc3ccc4c(n3)NC(=O)C(C)(C)O4)n2)cc(OC)c1OC at 2 µM | 209 | 79.0 | 134 | 86.8 | 124 | 178 | 74.8 | 68.7 | - | 406 | 230 | 52.7 |
| 16 | COc1cc(N2CCC(N3CCN(C)CC3)CC2)ccc1Nc1ncc(Cl)c(Nc2ccccc2S(=O)(=O)C(C)C)n1 at 0.4 µM | 181 | 170 | 312 | 119 | 96.2 | 133 | 126 | 75.7 | 91.5 | 165 | 102 | 67.0 |
| 17 | C[C@]1(O)C[C@@H](c2nc(-c3ccc4ccc(-c5ccccc5)nc4c3)c3c(N)nccn32)C1 at 2 µM | 82.4 | 69.6 | 121 | 49.8 | 65.6 | 83.5 | 38.8 | 104 | - | 124 | 78.7 | 109 |
| 18 | CS(=O)(=O)c1ccc(C(=O)Nc2ccc(Cl)c(-c3ccccn3)c2)c(Cl)c1 at 5 µM | 82.4 | 178 | 95.2 | 153 | 105 | 168 | 130 | 80.8 | - | 64.2 | 88.5 | 79.3 |
| 19 | C=CCNC1=C2C[C@@H](C)C[C@H](OC)[C@H](O)[C@@H](C)/C=C(\C)[C@H](OC(N)=O)[C@@H](OC)/C=C\C=C(/C)C(=O)NC(=CC1=O)C2=O at 0.01 µM | 174 | 80.9 | 176 | 144 | 161 | 48.0 | 302 | 39.9 | - | 103 | 157 | 1040 |
| 20 | O=C(/C=C/c1cccnc1)NCCCCC1CCN(C(=O)c2ccccc2)CC1 at 0.05 µM | 45.3 | 164 | 52.9 | 1860 | 613 | 50.8 | 69.7 | 133 | - | 127 | 169 | 235 |
| 21 | Cn1cc(/C=C2\C(=O)Nc3cccnc32)c2ccccc21 at 2 µM | 98.9 | 102 | 94.6 | 85.6 | 52.7 | 49.7 | 272 | 62.6 | - | 91.1 | 177 | 98.4 |
| 22 | C[C@@H](Oc1cc(-c2cnn(C3CCNCC3)c2)cnc1N)c1c(Cl)ccc(F)c1Cl at 1 µM | 90.6 | 25.5 | 76.2 | 89.4 | 87.2 | 65.2 | 43.3 | 220 | - | 133 | 81.3 | 149 |
| 23 | C#Cc1cccc(Nc2ncnc3cc(OCCOC)c(OCCOC)cc23)c1 at 4 µM | 155 | 87.2 | 155 | 121 | 171 | 181 | 270 | 216 | - | 152 | 145 | 319 |
| 24 | Nc1ccn([C@@H]2O[C@H](CO)[C@@H](O)C2(F)F)c(=O)n1 at 0.002 µM | 197 | 102 | 144 | 74.2 | 590 | 130 | 281 | 20.2 | - | 67.4 | 201 | 75.2 |
| 25 | Clc1ccc(Nc2nnc(Cc3ccncc3)c3ccccc23)cc1 at 10 µM | 85.9 | 83.1 | 129 | 152 | 83.1 | 134 | 103 | 43.1 | - | 108 | 123 | 257 |
| 26 | CCCS(=O)(=O)Nc1ccc(F)c(C(=O)c2c[nH]c3ncc(Cl)cc23)c1F at 0.4 µM | 133 | 16.9 | 136 | 242 | 188 | 136 | 51.9 | 71.1 | - | 293 | 96.5 | 234 |
| 27 | CNC(=O)c1cc(Oc2ccc(NC(=O)Nc3ccc(Cl)c(C(F)(F)F)c3)cc2)ccn1 at 2 µM | 130 | 99.7 | 75.5 | 125 | 125 | 77.1 | 103 | 85.7 | - | 162 | 148 | 64.2 |
| 28 | COc1ccc2c(c1)CCC1C2CCC2(C)C(NCCCCCCN3C(=O)C=CC3=O)CCC12 (centres unmarked) at 2 µM | 41.1 | 114 | 44.9 | 83.2 | 66.7 | 295 | 47.7 | 82.0 | - | 50.6 | 134 | 106 |
| 29 | CN(NC(=O)CC(=O)NN(C)C(=S)c1ccccc1)C(=S)c1ccccc1 at 0.03 µM | 706 | 184 | 721 | 204 | 399 | 439 | 138 | 76.0 | - | 124 | 167 | 6410 |
| 30 | C/C(O)=C(\C#N)C(=O)Nc1cc(Br)ccc1Br at 10 µM | 111 | 230 | 77.1 | 146 | 52.8 | 96.4 | 224 | 29.5 | 60.4 | 119 | 42.7 | 74.2 |
| 31 | CC1(C)CCC(c2ccc(Cl)cc2)=C(CN2CCN(c3ccc(C(=O)NS(=O)(=O)c4ccc(N[C@H](CCN5CCOCC5)CSc5ccccc5)c(S(=O)(=O)C(F)(F)F)c4)cc3)CC2)C1 at 2 µM | 142 | 78.8 | 147 | 148 | 121 | 165 | 159 | 470 | - | 340 | 67.7 | 41.7 |
| 32 | Cn1cnc2c(F)c(Nc3ccc(Br)cc3Cl)c(C(=O)NOCCO)cc21 at 0.075 µM | 89.2 | 107 | 154 | 166 | 143 | 94.9 | 65.6 | 157 | - | 233 | 45.5 | 277 |
| 33 | CC(C)CCN1c2nc(Nc3cc(F)c(O)c(F)c3)ncc2N(C)C(=O)C1C (centres unmarked) at 1 µM | 178 | 283 | 164 | 86.6 | 61.6 | 49.2 | 102 | 35.2 | 57.5 | 176 | 246 | 149 |
| 34 | N.N.[Cl][Pt][Cl] at 8 µM | 101 | 36.1 | 47.5 | 146 | 156 | 231 | 299 | 33.2 | - | 160 | 46.0 | 60.6 |
| 35 | c1cc(-c2cnn3cc(-c4ccc(OCCN5CCCCC5)cc4)cnc23)ccn1 at 2 µM | 128 | 53.0 | 194 | 119 | 159 | 64.8 | 66.6 | 100 | 109 | 109 | 358 | 54.7 |
| 36 | Cc1nc(Nc2ncc(C(=O)Nc3c(C)cccc3Cl)s2)cc(N2CCN(CCO)CC2)n1 at 0.02 µM | 27.8 | 163 | 236 | 262 | 116 | 113 | 119 | 61.9 | - | 79.6 | 77.6 | 1010 |

2 of the entries, repeated:

| Partner | MeWo | COLO 800 | A2058 | SK-MEL-5 | COLO 829 | IST-MEL1 | WM451Lu | SK-MEL-28 | 501mel | WM3526 | MEL-HO | WM115 |
|---|---|---|---|---|---|---|---|---|---|---|---|---|
| CNC(=O)c1cc(Oc2ccc(NC(=O)Nc3ccc(Cl)c(C(F)(F)F)c3)cc2)ccn1 at 2 µM | 130 | 99.7 | 75.5 | 125 | 125 | 77.1 | 103 | 85.7 | - | 162 | 148 | 64.2 |
| N.N.[Cl][Pt][Cl] at 8 µM | 101 | 36.1 | 47.5 | 146 | 156 | 231 | 299 | 33.2 | - | 160 | 46.0 | 60.6 |

Data from the primary screen of doi:10.1371/journal.pone.0140310, rounded.